According to the supplement of paper PMC10849652:
This is one part of the list.

Chains of the proteins cited; added tags and fusions are not shown. Lines headed by an entry give the natural chain unless they say otherwise; changes in a name come on top.
UniProt Q15291, whole entry, looked up: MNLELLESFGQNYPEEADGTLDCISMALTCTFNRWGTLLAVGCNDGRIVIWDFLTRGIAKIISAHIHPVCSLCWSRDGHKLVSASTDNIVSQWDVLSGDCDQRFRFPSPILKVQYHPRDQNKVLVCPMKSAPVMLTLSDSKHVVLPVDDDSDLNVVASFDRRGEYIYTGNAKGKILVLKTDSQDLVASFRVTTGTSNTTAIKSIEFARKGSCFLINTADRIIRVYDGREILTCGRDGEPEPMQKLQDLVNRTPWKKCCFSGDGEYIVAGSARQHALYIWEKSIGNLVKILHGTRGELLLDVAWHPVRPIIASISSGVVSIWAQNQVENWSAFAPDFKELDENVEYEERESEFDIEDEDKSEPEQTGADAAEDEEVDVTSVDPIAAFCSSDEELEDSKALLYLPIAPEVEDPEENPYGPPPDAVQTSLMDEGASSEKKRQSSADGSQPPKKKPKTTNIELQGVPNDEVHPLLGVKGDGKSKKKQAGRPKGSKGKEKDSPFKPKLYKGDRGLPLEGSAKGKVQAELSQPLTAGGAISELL
UniProt P62820, whole entry, looked up: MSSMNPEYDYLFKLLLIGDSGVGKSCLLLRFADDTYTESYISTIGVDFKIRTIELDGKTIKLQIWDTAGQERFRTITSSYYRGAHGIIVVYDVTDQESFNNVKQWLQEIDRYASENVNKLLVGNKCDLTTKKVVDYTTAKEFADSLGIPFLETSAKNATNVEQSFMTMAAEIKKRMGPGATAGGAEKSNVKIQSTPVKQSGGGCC
UniProt P10114: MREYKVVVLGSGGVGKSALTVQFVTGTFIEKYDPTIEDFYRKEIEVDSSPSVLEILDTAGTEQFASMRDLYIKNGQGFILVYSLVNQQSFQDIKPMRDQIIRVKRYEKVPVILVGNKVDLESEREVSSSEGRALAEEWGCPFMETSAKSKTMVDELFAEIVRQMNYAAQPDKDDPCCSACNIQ
UniProt P54725: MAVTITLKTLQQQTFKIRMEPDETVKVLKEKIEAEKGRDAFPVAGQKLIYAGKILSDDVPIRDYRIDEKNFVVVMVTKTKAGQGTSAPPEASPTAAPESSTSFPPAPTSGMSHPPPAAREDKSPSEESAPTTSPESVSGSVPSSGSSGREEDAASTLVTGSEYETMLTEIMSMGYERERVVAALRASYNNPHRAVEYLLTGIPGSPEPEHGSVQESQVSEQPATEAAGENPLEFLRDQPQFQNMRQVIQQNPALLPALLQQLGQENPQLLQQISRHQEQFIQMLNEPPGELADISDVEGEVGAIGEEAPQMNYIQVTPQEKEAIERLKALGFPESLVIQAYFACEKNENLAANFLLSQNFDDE
UniProt P61224: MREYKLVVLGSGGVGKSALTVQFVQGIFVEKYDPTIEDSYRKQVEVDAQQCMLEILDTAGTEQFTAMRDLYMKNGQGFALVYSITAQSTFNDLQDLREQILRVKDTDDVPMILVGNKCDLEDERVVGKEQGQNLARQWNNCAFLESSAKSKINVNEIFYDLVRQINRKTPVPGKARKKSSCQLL
UniProt Q9ULC3: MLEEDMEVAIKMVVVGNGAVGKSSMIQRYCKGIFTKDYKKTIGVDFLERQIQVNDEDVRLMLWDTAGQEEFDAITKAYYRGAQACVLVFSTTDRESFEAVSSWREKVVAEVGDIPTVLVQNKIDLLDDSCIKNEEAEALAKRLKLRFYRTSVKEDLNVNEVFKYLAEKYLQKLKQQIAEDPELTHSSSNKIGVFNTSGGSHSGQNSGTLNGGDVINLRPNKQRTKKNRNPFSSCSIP
UniProt Q96S21: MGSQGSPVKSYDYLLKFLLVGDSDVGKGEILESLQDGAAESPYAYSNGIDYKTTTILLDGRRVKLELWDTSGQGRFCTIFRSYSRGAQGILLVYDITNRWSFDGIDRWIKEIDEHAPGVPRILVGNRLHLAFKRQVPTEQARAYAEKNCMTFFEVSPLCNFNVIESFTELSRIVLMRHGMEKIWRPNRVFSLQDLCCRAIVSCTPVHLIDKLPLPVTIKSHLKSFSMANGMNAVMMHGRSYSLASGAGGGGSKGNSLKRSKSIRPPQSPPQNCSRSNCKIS
UniProt Q9NRW1: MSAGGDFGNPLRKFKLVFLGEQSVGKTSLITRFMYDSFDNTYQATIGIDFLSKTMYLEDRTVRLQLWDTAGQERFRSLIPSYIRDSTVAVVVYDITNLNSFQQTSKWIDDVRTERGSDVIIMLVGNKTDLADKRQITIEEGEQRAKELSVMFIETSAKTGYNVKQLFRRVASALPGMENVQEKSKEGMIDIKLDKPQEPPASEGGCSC
UniProt Q13637: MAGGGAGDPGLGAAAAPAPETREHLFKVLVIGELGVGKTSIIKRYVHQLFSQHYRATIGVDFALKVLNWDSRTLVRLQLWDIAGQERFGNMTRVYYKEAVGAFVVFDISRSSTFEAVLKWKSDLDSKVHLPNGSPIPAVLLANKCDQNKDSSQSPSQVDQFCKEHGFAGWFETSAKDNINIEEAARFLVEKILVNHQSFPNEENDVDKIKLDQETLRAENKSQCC
UniProt Q86YS3: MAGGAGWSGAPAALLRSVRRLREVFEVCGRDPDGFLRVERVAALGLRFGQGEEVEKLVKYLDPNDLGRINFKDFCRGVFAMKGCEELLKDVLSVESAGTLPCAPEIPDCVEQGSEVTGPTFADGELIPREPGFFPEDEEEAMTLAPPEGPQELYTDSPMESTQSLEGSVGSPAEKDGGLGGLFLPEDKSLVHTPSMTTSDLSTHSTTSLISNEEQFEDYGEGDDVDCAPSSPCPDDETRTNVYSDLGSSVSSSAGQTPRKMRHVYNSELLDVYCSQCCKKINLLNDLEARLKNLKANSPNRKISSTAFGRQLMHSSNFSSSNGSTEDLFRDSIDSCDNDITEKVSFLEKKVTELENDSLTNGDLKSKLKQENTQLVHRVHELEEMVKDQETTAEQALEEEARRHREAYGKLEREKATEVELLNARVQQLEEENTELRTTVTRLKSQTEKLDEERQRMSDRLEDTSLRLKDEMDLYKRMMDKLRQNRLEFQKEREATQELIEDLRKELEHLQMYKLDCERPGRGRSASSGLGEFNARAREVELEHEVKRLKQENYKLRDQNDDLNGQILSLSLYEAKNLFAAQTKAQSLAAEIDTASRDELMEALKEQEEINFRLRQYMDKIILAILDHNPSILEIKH
UniProt P20338: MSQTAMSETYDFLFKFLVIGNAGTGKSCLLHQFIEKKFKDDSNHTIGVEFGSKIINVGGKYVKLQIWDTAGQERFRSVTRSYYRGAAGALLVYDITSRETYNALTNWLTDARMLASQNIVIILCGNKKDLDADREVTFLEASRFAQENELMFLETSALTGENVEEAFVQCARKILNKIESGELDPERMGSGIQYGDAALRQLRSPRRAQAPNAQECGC
UniProt Q13636: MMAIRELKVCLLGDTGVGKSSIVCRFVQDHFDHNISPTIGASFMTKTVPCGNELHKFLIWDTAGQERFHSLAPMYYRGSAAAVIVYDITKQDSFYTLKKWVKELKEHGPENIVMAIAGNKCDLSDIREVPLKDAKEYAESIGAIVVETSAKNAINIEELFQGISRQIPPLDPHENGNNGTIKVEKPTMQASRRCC
UniProt P47224: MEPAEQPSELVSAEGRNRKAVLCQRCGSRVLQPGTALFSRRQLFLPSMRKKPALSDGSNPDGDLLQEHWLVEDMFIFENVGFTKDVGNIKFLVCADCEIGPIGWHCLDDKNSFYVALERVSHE
UniProt P54727: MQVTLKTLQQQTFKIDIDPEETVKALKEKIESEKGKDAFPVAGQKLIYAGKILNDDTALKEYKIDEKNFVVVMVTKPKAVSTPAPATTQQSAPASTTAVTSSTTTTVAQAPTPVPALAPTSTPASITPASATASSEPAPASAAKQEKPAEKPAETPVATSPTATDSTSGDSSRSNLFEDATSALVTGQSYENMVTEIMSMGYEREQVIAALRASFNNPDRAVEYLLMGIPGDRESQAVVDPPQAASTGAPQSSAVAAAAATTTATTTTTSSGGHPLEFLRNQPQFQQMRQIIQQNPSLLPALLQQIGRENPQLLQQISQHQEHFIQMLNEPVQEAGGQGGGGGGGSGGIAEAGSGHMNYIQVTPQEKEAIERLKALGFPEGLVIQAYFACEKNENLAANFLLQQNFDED
UniProt O43502: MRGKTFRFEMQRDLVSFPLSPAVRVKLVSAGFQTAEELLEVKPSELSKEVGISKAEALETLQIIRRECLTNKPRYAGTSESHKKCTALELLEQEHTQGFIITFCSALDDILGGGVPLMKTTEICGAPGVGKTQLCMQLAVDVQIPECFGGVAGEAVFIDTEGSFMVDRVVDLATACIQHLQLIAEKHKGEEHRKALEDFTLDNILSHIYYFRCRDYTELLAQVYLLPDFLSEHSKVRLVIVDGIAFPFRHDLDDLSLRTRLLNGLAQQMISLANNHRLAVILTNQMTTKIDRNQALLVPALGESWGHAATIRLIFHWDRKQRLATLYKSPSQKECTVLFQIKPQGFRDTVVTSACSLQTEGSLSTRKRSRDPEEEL

Legend:
Experiment in all cases: log2 fold change, soluble protein after heating vs DMSO (PISA); higher = thermal stabilisation; K562 cells, 10 uM, 30 min; active = over 0.2 and 3.5 SD of the protein, either way, in both replicates (recomputed)
[1] = compound: CC1=C(C=C(C=C1)NC(=O)C2=CC(=CC=C2)C(C)(C)C#N)NC3=CC4=C(C=C3)N=CN(C4=O)C
Procedure, shortened: (§1)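 Thermal stability values are relative to control samples and come from duplicates. They are expressed as log2 fold changes. For measurement, K562 cells (2×10^6 cells/mL) received 10 μM compound for 30 min, and aliquots were heated for 3 min over 48°C-58°C, pooled, and extracted at 4°C in PBS with 0.5% NP-40. Soluble protein, the supernatant after 21,000xg for 90 min, was quantified by TMTpro 16plex LC-MS/MS with equalised channel sums.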

[2] = compound: CC1=C(C=C(C=C1)NC(=O)C2=CC(=CC=C2)N(C)C)NC(=O)C3=CC=C(C=C3)O
Procedure, shortened: as §1

[3] = compound: CC1=CC=C(C=C1)SC2=C3C=C(SC3=CN=C2)C(=O)N
Procedure, shortened: as §1

[4] = compound: CC1=NC(=CC=C1)C2=C(N=C(N2)C(C)(C)C)C3=CC4=NC=CN=C4C=C3
Procedure, shortened: as §1

[5] = compound: CCCCN(Cc1ccc(C(=O)NO)cc1)C(=O)Nc1ccccc1 [Nexturastat A]
Procedure, shortened: as §1

[6] = compound: CCCS(=O)(=O)Nc1ccc(F)c(C(=O)c2c[nH]c3ncc(-c4ccc(Cl)cc4)cc23)c1F [vemurafenib]
Procedure, shortened: as §1

[7] = compound: CCCS(=O)(=O)Nc1ccc(F)c(C(=O)c2c[nH]c3ncc(Cl)cc23)c1F
Procedure, shortened: as §1

[8] = compound: CCCc1cc(C)[nH]c(=O)c1CNC(=O)c1cc(-c2ccnc(N3CCN(C)CC3)c2)cc2c1cnn2C(C)C
Procedure, shortened: as §1

[9] = compound: CCN(CC)Cc1ccc2cc(COC(=O)Nc3ccc(C(=O)NO)cc3)ccc2c1 [givinostat]
Procedure, shortened: as §1

[10] = compound: CCN(CCCOc1ccc2c(Nc3cc(CC(=O)Nc4cccc(F)c4)[nH]n3)ncnc2c1)CCOP(=O)(O)O [barasertib]
Procedure, shortened: as §1

[11] = compound: CC[C@@H]1C(=O)N(C)c2cnc(Nc3ccc(C(=O)NC4CCN(C)CC4)cc3OC)nc2N1C1CCCC1
Procedure, shortened: as §1

[12] = compound: CC[C@@H]1C(=O)N(C)c2cnc(Nc3ccc(C(=O)N[C@H]4CC[C@H](N5CCN(CC6CC6)CC5)CC4)cc3OC)nc2N1C(C)C [volasertib]
Procedure, shortened: as §1

[13] = compound: CC[C@H](C)N1C=C(C2=C(C=C(C=C21)C3=CN=C(C=C3)N4CCNCC4)C(=O)NCC5=C(C=C(NC5=O)C)C)C
Procedure, shortened: as §1

[14] = compound: CC[C@H](C)[C@@H](C(=O)N[C@@H]([C@@H](C)O)C(=O)N[C@@H](CC(C)C)C(=O)[C@]1(CO1)C)NC(=O)[C@H]([C@@H](C)CC)N(C)C(=O)C [epoxomicin]
Procedure, shortened: as §1

[15] = compound: CCn1c(C(=O)N(C2CC2)C2CC2)cc2c3c(ncn3C)c(Nc3cc(C)n(C)n3)nc21
Procedure, shortened: as §1

[16] = compound: CCn1cc(-c2ccnc3[nH]c(-c4cccc(CN(C)C)c4)cc23)c(-c2ccc(NC(=O)N(C)C)cc2)n1
Procedure, shortened: as §1

[17] = compound: CN(C)CC(=O)Nc1ccc2[nH]c(=O)c3ccccc3c2c1
Procedure, shortened: as §1

[18] = compound: CN(CCOC1=CC=C(C=C1)C[C@H]2C(=O)NC(=O)S2)C3=CC=CC=N3 (racemic) [rosiglitazone]
Procedure, shortened: as §1

[19] = compound: CN1C2=C(C3=C1C(=O)N(N=C3)CC4=CC(=CC=C4)N)SC(=C2)S(=O)C
Procedure, shortened: as §1

[20] = compound: CN1CCC(CNc2ccc3ncc(-c4cccc(OC(F)(F)F)c4)n3n2)CC1
Procedure, shortened: as §1

Measured: log2 fold change

RBBP5 (UniProt Q15291)
inactive: [1] -0.016 | [2] 0.034 | [3] -0.022 | [4] -0.017 | [5] 0.036 | [6] -0.02 | [7] -0.011 | [8] -0.047 | [9] 0.002 | [10] -0.03 | [11] 0.045 | [12] -0.02 | [13] -0.061 | [14] -0.012 | [15] 0.013 | [16] 0.045 | [17] -0.037 | [18] -0.021 | [19] -0.009 | [20] 0.065

RAB1A (UniProt P62820)
inactive: [1] 0.001 | [2] 0.048 | [3] -0.004 | [4] 0.008 | [5] -0.113 | [6] -0.021 | [7] -0.028 | [8] 0.059 | [9] 0.009 | [10] -0.003 | [11] -0.016 | [12] 0.068 | [13] -0.016 | [14] 0.028 | [15] 0.052 | [16] 0.002 | [17] -0.021 | [18] -0.015 | [19] -0.031 | [20] 0.067

RACK1 (UniProt P63244)
inactive: [1] 0.015 | [2] 0.015 | [3] 0.011 | [4] 0.064 | [5] -0.055 | [6] 0.016 | [7] -0.008 | [8] 0.016 | [9] -0.046 | [10] -0.023 | [11] 0.066 | [12] 0.149 | [13] 0.046 | [14] 0.033 | [15] 0.012 | [16] -0.07 | [17] 0.002 | [18] 0.01 | [19] -0.069 | [20] -0.027

RAP2A (UniProt P10114)
inactive: [1] 0.006 | [2] 0.006 | [3] 0.038 | [4] -0.045 | [5] -0.069 | [6] -0.021 | [7] -0.052 | [8] 0.013 | [9] -0.004 | [10] -0.012 | [11] 0.059 | [12] 0.035 | [13] -0.016 | [14] -0.044 | [15] 0.008 | [16] -0.133 | [17] -0.007 | [18] -0.003 | [19] -0.029 | [20] 0.01

Quoted at random: two entries already listed
RACK1 (UniProt P63244)
inactive: [1] 0.015 | [2] 0.015 | [3] 0.011 | [4] 0.064 | [5] -0.055 | [6] 0.016 | [7] -0.008 | [8] 0.016 | [9] -0.046 | [10] -0.023 | [11] 0.066 | [12] 0.149 | [13] 0.046 | [14] 0.033 | [15] 0.012 | [16] -0.07 | [17] 0.002 | [18] 0.01 | [19] -0.069 | [20] -0.027

RAB1A (UniProt P62820)
inactive: [1] 0.001 | [2] 0.048 | [3] -0.004 | [4] 0.008 | [5] -0.113 | [6] -0.021 | [7] -0.028 | [8] 0.059 | [9] 0.009 | [10] -0.003 | [11] -0.016 | [12] 0.068 | [13] -0.016 | [14] 0.028 | [15] 0.052 | [16] 0.002 | [17] -0.021 | [18] -0.015 | [19] -0.031 | [20] 0.067

Remaining list, next part:

RAD23A (UniProt P54725)
inactive: [1] -0.016 | [2] 0.031 | [3] -0.027 | [4] 0.027 | [5] -0.116 | [6] -0.02 | [7] 0.018 | [8] -0.048 | [9] -0.051 | [10] -0.009 | [11] 0.056 | [12] 0.092 | [13] -0.035 | [14] -0.021 | [15] 0.046 | [16] 0.069 | [17] -0.012 | [18] -0.009 | [19] -0.052 | [20] -0.013

RAP1B (UniProt P61224)
inactive: [1] 0.004 | [2] 0.014 | [3] 0.003 | [4] 0.061 | [5] -0.032 | [6] 0.041 | [7] -0.005 | [8] 0.039 | [9] 0.024 | [10] -0.022 | [11] 0.013 | [12] 0.067 | [13] -0.029 | [14] 0.068 | [15] 0.016 | [16] 0.052 | [17] 0.002 | [18] 0.006 | [19] -0.031 | [20] 0.15

RAB23 (UniProt Q9ULC3)
inactive: [1] -0.002 | [2] -0.001 | [3] -0.005 | [4] 0 | [5] -0.166 | [6] -0.008 | [7] -0.005 | [8] 0.021 | [9] 0.025 | [10] -0.014 | [11] 0.049 | [12] 0.069 | [13] -0.013 | [14] 0.015 | [15] -0.051 | [16] -0.025 | [17] -0.018 | [18] 0.008 | [19] -0.068 | [20] 0.103

RAB12, A0A3B3ITT1
inactive: [1] -0.013 | [2] -0.021 | [3] -0.03 | [4] 0.017 | [5] -0.05 | [6] -0.015 | [7] -0.017 | [8] 0.007 | [9] -0.008 | [10] 0.017 | [11] 0.019 | [12] -0.072 | [13] -0.048 | [14] -0.019 | [15] 0.002 | [16] 0.048 | [17] -0.017 | [18] 0.006 | [19] -0.079 | [20] 0.004

RAB40C (UniProt Q96S21)
inactive: [1] -0.025 | [2] -0.095 | [3] 0.127 | [4] -0.016 | [5] -0.037 | [6] 0.033 | [7] -0.074 | [8] -0.197 | [9] 0.11 | [10] -0.099 | [11] -0.155 | [12] -0.073 | [13] -0.03 | [14] 0.11 | [15] 0.029 | [16] 0.229 | [17] 0.009 | [18] 0.011 | [19] 0.19 | [20] -0.186

RAB6B (UniProt Q9NRW1)
inactive: [1] 0.052 | [2] -0.004 | [3] -0.02 | [4] -0.025 | [5] -0.065 | [6] -0.072 | [7] -0.053 | [8] 0.095 | [9] 0.028 | [10] -0.016 | [11] 0.04 | [12] 0.096 | [13] -0.056 | [14] -0.062 | [15] 0.045 | [16] 0 | [17] -0.028 | [18] 0.009 | [19] -0.046 | [20] 0.075

RAB32 (UniProt Q13637)
inactive: [1] -0.001 | [2] -0.024 | [3] 0.02 | [4] -0.015 | [5] 0.034 | [6] 0.064 | [7] 0.021 | [8] -0.026 | [9] 0.007 | [10] -0.041 | [11] 0.025 | [12] 0.035 | [13] -0.056 | [14] -0.011 | [15] -0.023 | [16] 0.041 | [17] 0.01 | [18] 0.011 | [19] 0.103 | [20] 0.116

RAB11FIP4 (UniProt Q86YS3)
inactive: [1] 0.079

RAB4A (UniProt P20338)
inactive: [1] -0.046 | [2] 0.02 | [3] 0.061 | [4] -0.014 | [5] -0.098 | [6] 0.043 | [7] 0.055 | [8] -0.004 | [9] 0.001 | [10] -0.029 | [11] 0.041 | [12] 0.001 | [13] -0.001 | [14] -0.053 | [15] 0 | [16] 0.021 | [17] -0.018 | [18] 0.013 | [19] -0.043 | [20] 0.027

RAB31 (UniProt Q13636)
inactive: [1] -0.024 | [2] -0.021 | [3] -0.002 | [4] -0.021 | [5] -0.035 | [6] -0.016 | [7] -0.019 | [8] 0.001 | [9] -0.088 | [10] -0.001 | [11] 0.03 | [12] 0.036 | [13] -0.029 | [14] 0.011 | [15] 0.037 | [16] -0.068 | [17] 0.018 | [18] 0.004 | [19] -0.073 | [20] -0.016

RABIF (UniProt P47224)
inactive: [1] -0.058 | [2] -0.033 | [3] 0.026 | [4] 0.058 | [5] -0.001 | [6] 0.021 | [7] 0.063 | [8] 0.023 | [9] -0.007 | [10] 0.025 | [11] 0 | [12] -0.047 | [13] -0.001 | [14] 0.093 | [15] 0.022 | [16] 0.006 | [17] -0.083 | [18] -0.062 | [19] -0.023 | [20] 0.072

RAD23B (UniProt P54727)
inactive: [1] -0.022 | [2] 0.011 | [3] 0.003 | [4] 0.01 | [5] -0.052 | [6] -0.018 | [7] -0.036 | [8] -0.046 | [9] -0.029 | [10] -0.005 | [11] 0.006 | [12] 0.078 | [13] -0.03 | [14] 0.011 | [15] 0.024 | [16] -0.013 | [17] -0.033 | [18] -0.058 | [19] -0.018 | [20] 0.051

RAD51C (UniProt O43502)
inactive: [1] -0.017 | [2] 0.059 | [3] -0.023 | [4] -0.047 | [5] -0.017 | [6] -0.039 | [7] 0.008 | [8] -0.102 | [9] -0.002 | [10] 0.063 | [11] 0.027 | [12] -0.03 | [13] 0.068 | [14] 0.031 | [15] -0.011 | [16] -0.019 | [17] 0.104 | [18] 0.044 | [19] -0.076 | [20] 0.081
